{"source": "patent US9144595B2", "about": "“APLs for treating arthritis” (University of Tennessee Research Foundation, priority 2009, dated 2015)", "test_system": "murine models of oral tolerance", "experiment": "Murine models of oral tolerance", "settings": "mouse, in vivo", "description": "A form of CII based therapy has been tried in patients with RA and juvenile RA by administering intact native chick or bovine CII to patients. Seven trials of treatment with oral CII have been reported including two of our own. […] Most patients in these studies also received NSAIDs which block oral tolerance and systemic tolerance. The use of NSAIDS might have been responsible for the mixed results of oral CII in RA. […] Furthermore, we have applied these crucial data in designing oral tolerance trials in humans. We can down regulate with oral CII, PBMC production of IFNγ to α1(II) in RA patients who take NSAIDS plus misoprostol and/or DMARDS and anti-TNFα therapies. Oral administration of low dose antigen generates regulatory T cells, which act in the respective microenvironment in a non-antigen specific manner by producing down-regulatory cytokines such as IL4, IL10 and TGFbeta, a Th2/Th3 cytokine pattern.", "note": "At least one compound was matched to its structure with a doubt left.", "data": [{"compound": "CCCCC(C)(O)C/C=C/[C@H]1[C@H](O)CC(=O)[C@@H]1CCCCCCC(=O)OC", "note": "(mixture of isomers) [misoprostol]", "values": [{"measurement": "NSAID inhibition of oral tolerance", "result": "reverses NSAID inhibition of oral tolerance"}]}]}
